Test results as given in the supplement of paper PMC10849652.
The list shows a part of the results.

The chains behind the UniProt entries cited, without tags or fusion partners. Where a name states a change or a piece, a line headed by the entry shows the natural chain unless it says otherwise.
UniProt Q9BVV7: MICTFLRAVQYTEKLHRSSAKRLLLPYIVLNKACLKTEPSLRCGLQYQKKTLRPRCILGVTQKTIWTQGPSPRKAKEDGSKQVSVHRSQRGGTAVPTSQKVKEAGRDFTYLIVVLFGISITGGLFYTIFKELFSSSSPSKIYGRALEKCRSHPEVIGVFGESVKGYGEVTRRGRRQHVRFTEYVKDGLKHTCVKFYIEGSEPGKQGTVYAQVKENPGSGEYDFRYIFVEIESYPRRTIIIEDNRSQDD
UniProt Q9NWX6: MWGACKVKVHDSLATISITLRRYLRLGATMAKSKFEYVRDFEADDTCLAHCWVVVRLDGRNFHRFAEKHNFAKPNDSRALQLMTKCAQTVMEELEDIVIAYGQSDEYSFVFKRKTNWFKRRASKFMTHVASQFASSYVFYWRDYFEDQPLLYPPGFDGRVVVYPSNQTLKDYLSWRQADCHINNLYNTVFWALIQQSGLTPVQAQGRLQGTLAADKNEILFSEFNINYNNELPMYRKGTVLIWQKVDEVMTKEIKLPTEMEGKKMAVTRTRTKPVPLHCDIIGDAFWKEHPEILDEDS
UniProt Q9Y584: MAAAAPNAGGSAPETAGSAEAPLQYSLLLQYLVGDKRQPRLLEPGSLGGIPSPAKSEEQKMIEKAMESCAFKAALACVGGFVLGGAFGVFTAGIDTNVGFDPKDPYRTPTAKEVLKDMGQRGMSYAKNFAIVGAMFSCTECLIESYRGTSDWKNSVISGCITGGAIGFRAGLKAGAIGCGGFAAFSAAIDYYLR
UniProt Q5TEJ8: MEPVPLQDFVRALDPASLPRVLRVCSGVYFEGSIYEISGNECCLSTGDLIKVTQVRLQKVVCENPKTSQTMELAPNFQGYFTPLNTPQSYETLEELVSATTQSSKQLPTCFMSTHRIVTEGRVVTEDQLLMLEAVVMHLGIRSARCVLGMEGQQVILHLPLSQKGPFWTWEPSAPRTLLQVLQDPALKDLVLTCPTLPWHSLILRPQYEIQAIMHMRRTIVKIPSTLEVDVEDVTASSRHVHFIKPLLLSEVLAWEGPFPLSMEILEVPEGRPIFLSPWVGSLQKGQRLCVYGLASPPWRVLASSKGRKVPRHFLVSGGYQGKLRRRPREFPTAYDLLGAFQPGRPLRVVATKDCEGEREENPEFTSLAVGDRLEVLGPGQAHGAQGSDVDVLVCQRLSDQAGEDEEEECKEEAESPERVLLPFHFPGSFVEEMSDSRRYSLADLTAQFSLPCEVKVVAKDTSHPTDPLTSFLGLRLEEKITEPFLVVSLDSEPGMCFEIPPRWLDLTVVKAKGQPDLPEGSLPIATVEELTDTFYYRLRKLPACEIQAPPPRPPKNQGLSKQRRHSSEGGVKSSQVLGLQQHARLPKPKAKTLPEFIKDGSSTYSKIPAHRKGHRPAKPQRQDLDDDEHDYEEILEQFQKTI
UniProt Q9Y5J7: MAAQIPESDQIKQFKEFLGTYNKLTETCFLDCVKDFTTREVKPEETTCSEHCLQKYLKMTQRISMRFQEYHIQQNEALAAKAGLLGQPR
UniProt P29401: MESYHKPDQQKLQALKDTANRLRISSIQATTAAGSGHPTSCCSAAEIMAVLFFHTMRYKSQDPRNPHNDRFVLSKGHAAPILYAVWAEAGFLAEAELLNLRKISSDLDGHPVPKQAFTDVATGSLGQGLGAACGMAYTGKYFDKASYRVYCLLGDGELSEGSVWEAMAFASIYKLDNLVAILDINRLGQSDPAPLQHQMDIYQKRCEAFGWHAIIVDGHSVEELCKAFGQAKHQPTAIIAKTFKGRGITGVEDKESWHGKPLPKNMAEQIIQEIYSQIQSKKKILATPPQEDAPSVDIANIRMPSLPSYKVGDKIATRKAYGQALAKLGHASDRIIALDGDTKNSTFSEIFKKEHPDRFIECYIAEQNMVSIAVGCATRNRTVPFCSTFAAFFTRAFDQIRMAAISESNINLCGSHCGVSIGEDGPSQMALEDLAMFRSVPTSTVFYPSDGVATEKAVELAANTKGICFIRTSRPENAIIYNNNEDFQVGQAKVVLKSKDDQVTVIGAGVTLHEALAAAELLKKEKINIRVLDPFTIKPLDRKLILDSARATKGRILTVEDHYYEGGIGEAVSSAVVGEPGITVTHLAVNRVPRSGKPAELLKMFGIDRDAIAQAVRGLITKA
UniProt Q9UM00: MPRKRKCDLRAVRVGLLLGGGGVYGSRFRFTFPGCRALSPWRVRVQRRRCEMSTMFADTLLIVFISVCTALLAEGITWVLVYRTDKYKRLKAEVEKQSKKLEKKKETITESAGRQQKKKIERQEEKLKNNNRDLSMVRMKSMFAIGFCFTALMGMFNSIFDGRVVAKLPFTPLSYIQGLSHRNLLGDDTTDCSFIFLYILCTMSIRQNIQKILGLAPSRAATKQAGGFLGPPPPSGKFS
UniProt Q9UKI8: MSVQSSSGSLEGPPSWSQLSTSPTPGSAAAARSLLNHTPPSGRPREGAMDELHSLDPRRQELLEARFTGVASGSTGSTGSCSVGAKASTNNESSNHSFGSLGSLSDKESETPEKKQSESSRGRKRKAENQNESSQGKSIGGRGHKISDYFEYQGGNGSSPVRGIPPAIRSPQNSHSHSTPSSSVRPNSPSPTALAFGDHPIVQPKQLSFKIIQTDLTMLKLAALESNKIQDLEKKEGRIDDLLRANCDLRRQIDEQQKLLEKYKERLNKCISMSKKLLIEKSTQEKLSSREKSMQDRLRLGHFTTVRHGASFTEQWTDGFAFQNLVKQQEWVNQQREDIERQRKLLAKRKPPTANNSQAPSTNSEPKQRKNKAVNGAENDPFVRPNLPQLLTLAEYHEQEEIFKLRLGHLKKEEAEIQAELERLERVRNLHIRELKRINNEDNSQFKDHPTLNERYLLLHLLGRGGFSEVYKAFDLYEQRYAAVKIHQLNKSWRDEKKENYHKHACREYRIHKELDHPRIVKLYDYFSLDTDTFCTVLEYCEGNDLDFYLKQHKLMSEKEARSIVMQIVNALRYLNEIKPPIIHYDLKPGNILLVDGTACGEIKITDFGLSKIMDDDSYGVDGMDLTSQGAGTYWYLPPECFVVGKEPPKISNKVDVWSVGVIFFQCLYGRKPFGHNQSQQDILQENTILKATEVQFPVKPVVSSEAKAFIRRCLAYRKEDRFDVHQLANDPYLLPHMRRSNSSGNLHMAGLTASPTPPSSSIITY
UniProt Q04727: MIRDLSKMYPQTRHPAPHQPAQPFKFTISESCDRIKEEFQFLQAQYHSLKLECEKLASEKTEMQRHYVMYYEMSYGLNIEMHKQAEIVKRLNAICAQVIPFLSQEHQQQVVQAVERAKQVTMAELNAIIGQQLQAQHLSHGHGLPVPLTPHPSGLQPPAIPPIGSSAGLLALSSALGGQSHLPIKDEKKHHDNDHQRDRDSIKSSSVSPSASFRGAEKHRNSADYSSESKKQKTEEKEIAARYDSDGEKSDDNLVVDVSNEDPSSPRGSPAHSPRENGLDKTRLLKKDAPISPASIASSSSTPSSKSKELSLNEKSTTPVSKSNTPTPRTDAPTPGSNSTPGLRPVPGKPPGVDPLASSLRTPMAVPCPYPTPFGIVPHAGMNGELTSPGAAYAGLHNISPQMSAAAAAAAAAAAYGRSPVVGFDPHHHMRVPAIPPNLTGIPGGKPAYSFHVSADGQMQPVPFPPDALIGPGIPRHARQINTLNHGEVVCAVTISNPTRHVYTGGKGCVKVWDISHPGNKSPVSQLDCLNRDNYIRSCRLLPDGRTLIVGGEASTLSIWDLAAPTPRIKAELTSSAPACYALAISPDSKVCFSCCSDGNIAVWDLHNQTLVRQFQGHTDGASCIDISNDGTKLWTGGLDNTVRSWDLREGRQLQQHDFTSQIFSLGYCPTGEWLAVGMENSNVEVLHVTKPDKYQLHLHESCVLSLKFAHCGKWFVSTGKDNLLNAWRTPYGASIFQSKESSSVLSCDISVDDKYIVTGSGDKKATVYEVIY
UniProt Q9Y4G6: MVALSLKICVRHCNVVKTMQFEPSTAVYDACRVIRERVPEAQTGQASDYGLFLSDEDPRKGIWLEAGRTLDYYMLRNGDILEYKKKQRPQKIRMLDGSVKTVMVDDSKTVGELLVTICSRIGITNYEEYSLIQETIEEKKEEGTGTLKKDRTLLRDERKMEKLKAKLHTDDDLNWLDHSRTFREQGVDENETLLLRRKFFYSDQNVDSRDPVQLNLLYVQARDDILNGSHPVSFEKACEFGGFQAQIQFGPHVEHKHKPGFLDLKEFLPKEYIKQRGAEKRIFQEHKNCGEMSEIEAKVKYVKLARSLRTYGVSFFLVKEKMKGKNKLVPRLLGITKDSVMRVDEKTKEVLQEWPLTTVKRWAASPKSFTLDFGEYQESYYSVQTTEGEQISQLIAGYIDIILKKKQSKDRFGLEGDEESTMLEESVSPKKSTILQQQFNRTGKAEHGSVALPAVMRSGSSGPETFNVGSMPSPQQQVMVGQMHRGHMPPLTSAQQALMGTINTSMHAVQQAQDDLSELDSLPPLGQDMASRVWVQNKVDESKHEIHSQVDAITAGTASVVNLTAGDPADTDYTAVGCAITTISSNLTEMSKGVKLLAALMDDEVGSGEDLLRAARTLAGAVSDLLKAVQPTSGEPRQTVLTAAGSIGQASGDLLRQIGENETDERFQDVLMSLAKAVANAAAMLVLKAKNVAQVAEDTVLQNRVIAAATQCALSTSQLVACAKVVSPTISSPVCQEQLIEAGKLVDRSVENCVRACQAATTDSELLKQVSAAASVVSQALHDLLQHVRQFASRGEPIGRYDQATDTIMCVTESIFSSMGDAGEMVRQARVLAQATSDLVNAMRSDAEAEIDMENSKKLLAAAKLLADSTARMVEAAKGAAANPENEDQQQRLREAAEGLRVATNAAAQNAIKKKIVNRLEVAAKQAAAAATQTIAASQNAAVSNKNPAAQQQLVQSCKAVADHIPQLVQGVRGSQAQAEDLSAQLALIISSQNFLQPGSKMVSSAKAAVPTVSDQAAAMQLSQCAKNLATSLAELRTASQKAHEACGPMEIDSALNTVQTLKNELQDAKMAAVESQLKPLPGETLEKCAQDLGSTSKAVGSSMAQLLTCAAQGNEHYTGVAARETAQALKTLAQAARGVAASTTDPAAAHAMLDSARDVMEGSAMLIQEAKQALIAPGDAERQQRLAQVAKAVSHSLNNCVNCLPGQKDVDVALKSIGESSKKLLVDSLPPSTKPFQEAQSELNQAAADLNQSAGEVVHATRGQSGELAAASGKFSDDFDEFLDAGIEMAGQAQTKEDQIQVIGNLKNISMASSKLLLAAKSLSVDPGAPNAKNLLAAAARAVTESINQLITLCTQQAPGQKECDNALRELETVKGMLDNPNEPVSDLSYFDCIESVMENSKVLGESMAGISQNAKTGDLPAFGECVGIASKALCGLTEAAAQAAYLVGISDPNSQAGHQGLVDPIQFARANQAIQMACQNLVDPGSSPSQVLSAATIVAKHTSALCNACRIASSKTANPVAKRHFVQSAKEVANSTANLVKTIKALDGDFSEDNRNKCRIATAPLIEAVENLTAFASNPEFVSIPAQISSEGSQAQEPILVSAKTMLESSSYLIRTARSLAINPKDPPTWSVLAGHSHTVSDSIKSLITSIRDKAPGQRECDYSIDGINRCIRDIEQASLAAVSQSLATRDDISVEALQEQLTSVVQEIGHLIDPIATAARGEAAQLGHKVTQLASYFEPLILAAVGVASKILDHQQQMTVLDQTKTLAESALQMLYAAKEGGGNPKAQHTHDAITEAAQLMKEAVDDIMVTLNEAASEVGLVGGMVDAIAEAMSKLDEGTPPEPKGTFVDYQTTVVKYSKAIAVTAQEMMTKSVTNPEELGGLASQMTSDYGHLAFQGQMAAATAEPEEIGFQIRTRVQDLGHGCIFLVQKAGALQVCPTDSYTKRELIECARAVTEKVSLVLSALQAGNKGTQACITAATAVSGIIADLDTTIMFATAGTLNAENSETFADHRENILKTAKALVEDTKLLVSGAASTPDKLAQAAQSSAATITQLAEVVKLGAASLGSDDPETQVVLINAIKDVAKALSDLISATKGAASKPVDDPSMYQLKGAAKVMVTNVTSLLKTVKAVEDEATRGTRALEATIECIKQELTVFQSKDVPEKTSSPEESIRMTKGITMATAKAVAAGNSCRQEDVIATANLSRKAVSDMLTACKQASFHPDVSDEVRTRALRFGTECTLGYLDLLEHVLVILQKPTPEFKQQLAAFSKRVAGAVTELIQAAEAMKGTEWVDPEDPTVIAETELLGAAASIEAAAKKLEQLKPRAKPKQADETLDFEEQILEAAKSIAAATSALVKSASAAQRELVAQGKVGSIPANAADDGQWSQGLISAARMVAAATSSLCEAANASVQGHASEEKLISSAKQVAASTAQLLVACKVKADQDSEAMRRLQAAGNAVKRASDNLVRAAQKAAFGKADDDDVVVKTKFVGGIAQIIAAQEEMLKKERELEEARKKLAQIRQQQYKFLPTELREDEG

What was measured:
Assay in all cases: log2 fold change, soluble protein after heating vs DMSO (PISA); higher = thermal stabilisation; K562 lysate, 10 uM; active = over 0.2 and 3.5 SD of the protein, either way, in both replicates (recomputed)
[1] = compound: C#Cc1cccc(Nc2ncnc3cc(OCCOC)c(OCCOC)cc23)c1 [erlotinib]
Procedure, shortened: (§1)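 Thermal stability, expressed as log-two fold change relative to solvent controls, is given from duplicates. Crude K562 extract in PBS pH 7.4 with 1 mM MgCl2, at 1 mg/mL protein, was treated with 10 μM compound for 30 min and heated in aliquots for 3 min across 48°C-58°C. After pooling, adjustment to 0.5% NP-40 at 4°C and centrifugation at 21,000xg for 90 min, supernatant protein was measured by TMTpro 16plex LC-MS/MS with channel sums equalised.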

[2] = compound: C/C(=N\NC(=O)C1=CC(=CC=C1)S(=O)(=O)N2CCOCC2)/C3=C(C=CC(=C3)Cl)O
Procedure, shortened: as §1

[3] = compound: C1=CC(=CC=C1C2=NC3=C(N2)C=C(C=C3)C(=O)N)OC4=CC=C(C=C4)Cl
Procedure, shortened: as §1

[4] = compound: C1=CC2=C(C=CC(=C2)/C=C\3/C(=O)NC(=NCC4=CC=CS4)S3)N=C1
Procedure, shortened: as §1

[5] = compound: C1=CC2=NC=CN=C2C=C1/C=C/3\C(=O)NC(=O)S3
Procedure, shortened: as §1

[6] = compound: C1=CC=C(C=C1)C2=NC(=C(N2)C3=CC=NC=C3)C4=CC(=C(C=C4)Cl)O
Procedure, shortened: as §1

[7] = compound: C1=CC=C2C(=C1)C3=NNC4=CC=CC(=C43)C2=O
Procedure, shortened: as §1

[8] = compound: C1CCN(C1)C(=O)NC2=CC=CC(=C2)NC3=NC=C(C(=N3)NCCC4=CN=CN4)Br
Procedure, shortened: as §1

[9] = compound: C1CN(CCC1(CC2=CC=C(C=C2)Cl)N)C3=NC=NC4=C3C=CN4
Procedure, shortened: as §1

[10] = compound: C1COCCN1CCN2C3=CC=CC=C3N=C2NC(=O)C4=CC(=CC=C4)[N+](=O)[O-] [IRAK-1-4 Inhibitor I]
Procedure, shortened: as §1

[11] = compound: C=CC(=O)N1CCC[C@@H](n2nc(-c3ccc(Oc4ccccc4)cc3)c3c(N)ncnc32)C1 [ibrutinib]
Procedure, shortened: as §1

[12] = compound: CC(=O)c1cnc2ccc(-c3cc(Cl)c(O)c(Cl)c3)nc2c1N[C@H]1CC[C@H](CN(C)C)CC1
Procedure, shortened: as §1

[13] = compound: CC(C)(C)Cn1c(N)nc2ccc(-c3[nH]c(C(C)(C)C)nc3-c3ccc(F)cc3)nc21 [ralimetinib]
Procedure, shortened: as §1

[14] = compound: CC(C)(O)CC(=O)NCCn1ccc2ncnc(Nc3ccc(Oc4cccc(C(F)(F)F)c4)c(Cl)c3)c21
Procedure, shortened: as §1

[15] = compound: CC(C)C1=C2N=C(C=C(N2N=C1)NCC3=CC=CC=C3)NCCCCCCN
Procedure, shortened: as §1

[16] = compound: CC1=C(C(CC(=O)N1)C2=CC=C(C=C2)C(F)(F)F)C(=O)NC3=C(C=C4C(=C3)C=NN4)F
Procedure, shortened: as §1

[17] = compound: CC1=C(C2=C(C=C1)C(=O)C3=CC=CC=C3N2CCCN)C
Procedure, shortened: as §1

[18] = compound: CC1=C(C=C(C=C1)NC(=O)C2=CC(=CC=C2)C(C)(C)C#N)NC3=CC4=C(C=C3)N=CN(C4=O)C
Procedure, shortened: as §1

[19] = compound: CC1=C(C=C(C=C1)NC(=O)C2=CC(=CC=C2)N(C)C)NC(=O)C3=CC=C(C=C3)O
Procedure, shortened: as §1

[20] = compound: CC1=CC=C(C=C1)SC2=C3C=C(SC3=CN=C2)C(=O)N
Procedure, shortened: as §1

Measured: log2 fold change

TIMM21 (UniProt Q9BVV7)
inactive: [1] 0.01 | [2] -0.018 | [3] 0.094 | [4] -0.011 | [5] -0.029 | [6] -0.051 | [7] -0.021 | [8] -0.039 | [9] -0.021 | [10] -0.022 | [11] 0.007 | [12] 0 | [13] 0.048 | [14] 0 | [15] 0.032 | [16] -0.072 | [17] 0.001 | [18] -0.003 | [19] 0.014 | [20] 0.003

TJAP1 (UniProt Q5JTD0)
inactive: [1] 0.046 | [2] -0.106 | [3] 0.006 | [4] -0.011 | [5] -0.058 | [6] 0.002 | [7] 0.01 | [8] -0.088 | [9] 0.013 | [10] -0.036 | [11] 0.027 | [12] 0.026 | [13] 0.026 | [14] -0.001 | [15] 0.005 | [16] 0.008 | [17] 0.016 | [18] -0.034 | [19] 0.032 | [20] -0.014

THG1L (UniProt Q9NWX6)
inactive: [1] 0.009 | [2] 0.012 | [3] 0.051 | [4] 0.021 | [5] -0.004 | [6] -0.02 | [7] 0.012 | [8] -0.01 | [9] 0.055 | [10] -0.014 | [11] -0.002 | [12] 0.009 | [13] -0.033 | [14] 0.039 | [15] -0.001 | [16] -0.02 | [17] -0.006 | [18] -0.009 | [19] 0.007 | [20] 0.011

Looked up one by one from above, 2 records:
THG1L (UniProt Q9NWX6)
inactive: [1] 0.009 | [2] 0.012 | [3] 0.051 | [4] 0.021 | [5] -0.004 | [6] -0.02 | [7] 0.012 | [8] -0.01 | [9] 0.055 | [10] -0.014 | [11] -0.002 | [12] 0.009 | [13] -0.033 | [14] 0.039 | [15] -0.001 | [16] -0.02 | [17] -0.006 | [18] -0.009 | [19] 0.007 | [20] 0.011

TIMM21 (UniProt Q9BVV7)
inactive: [1] 0.01 | [2] -0.018 | [3] 0.094 | [4] -0.011 | [5] -0.029 | [6] -0.051 | [7] -0.021 | [8] -0.039 | [9] -0.021 | [10] -0.022 | [11] 0.007 | [12] 0 | [13] 0.048 | [14] 0 | [15] 0.032 | [16] -0.072 | [17] 0.001 | [18] -0.003 | [19] 0.014 | [20] 0.003

Later entries:

TMED9 (UniProt Q9BVK6)
inactive: [1] -0.023 | [2] 0.054 | [3] -0.063 | [4] 0.023 | [5] -0.04 | [6] -0.02 | [7] -0.008 | [8] 0 | [9] 0.017 | [10] 0 | [11] 0 | [12] 0.026 | [13] -0.025 | [14] -0.009 | [15] 0 | [16] -0.017 | [17] 0 | [18] -0.011 | [19] -0.023 | [20] 0.023

TIAL1 isoform 2 (UniProt Q01085)
inactive: [1] 0.015 | [2] -0.001 | [3] 0.023 | [4] -0.015 | [5] -0.019 | [6] -0.035 | [7] 0.059 | [8] 0 | [9] 0.017 | [10] 0.058 | [11] 0.018 | [12] -0.004 | [13] -0.063 | [14] -0.001 | [15] -0.001 | [16] 0.049 | [17] 0.015 | [18] -0.167 | [19] -0.06 | [20] -0.012

TIMM22 (UniProt Q9Y584)
inactive: [1] 0.038 | [2] 0.007 | [3] -0.12 | [4] 0.016 | [5] 0.015 | [6] -0.032 | [7] 0.009 | [8] -0.01 | [9] 0.139 | [10] 0.03 | [11] 0.074 | [12] 0.014 | [13] -0.005 | [14] -0.037 | [15] -0.008 | [16] 0.003 | [17] 0.063 | [18] -0.048 | [19] -0.042 | [20] -0.017

TGS1 (UniProt Q96RS0)
inactive: [1] -0.023 | [2] -0.007 | [3] 0.014 | [4] 0.035 | [5] -0.043 | [6] 0.006 | [7] -0.041 | [8] 0.033 | [9] 0.002 | [10] 0.01 | [11] -0.007 | [12] 0.019 | [13] 0.031 | [14] -0.041 | [15] -0.013 | [16] 0.014 | [17] -0.012 | [18] 0.003 | [19] 0.026 | [20] -0.01

TMED4 (UniProt Q7Z7H5)
inactive: [1] 0.028 | [2] 0.026 | [3] -0.033 | [4] -0.035 | [5] -0.056 | [6] 0.037 | [7] -0.028 | [8] 0.022 | [9] -0.002 | [10] 0.031 | [11] 0.035 | [12] 0.041 | [13] -0.008 | [14] -0.07 | [15] -0.022 | [16] 0.019 | [17] -0.02 | [18] -0.064 | [19] -0.056 | [20] 0.019

THEMIS2 (UniProt Q5TEJ8)
inactive: [1] -0.035 | [2] 0.006 | [3] 0.004 | [4] 0.036 | [5] 0.031 | [6] -0.041 | [7] -0.024 | [8] -0.02 | [9] 0.042 | [10] 0.031 | [11] 0.029 | [12] -0.038 | [13] 0.059 | [14] -0.037 | [15] -0.009 | [16] 0.029 | [17] -0.051 | [18] -0.023 | [19] -0.042 | [20] 0.126

TLN1 (UniProt Q9Y490)
inactive: [1] -0.008 | [2] 0.002 | [3] -0.001 | [4] -0.005 | [5] -0.018 | [6] 0 | [7] 0.02 | [8] -0.002 | [9] -0.009 | [10] -0.004 | [11] 0.012 | [12] 0 | [13] -0.004 | [14] 0.012 | [15] -0.006 | [16] -0.01 | [17] 0.015 | [18] 0.02 | [19] 0.001 | [20] 0.016

TIMM9 (UniProt Q9Y5J7)
inactive: [1] 0.083 | [2] -0.077 | [3] -0.058 | [4] 0.089 | [5] 0.056 | [6] 0.104 | [7] 0.065 | [8] 0.016 | [9] 0.077 | [10] 0.025 | [11] 0.167 | [12] -0.106 | [13] -0.052 | [14] 0.04 | [15] -0.032 | [16] -0.037 | [17] -0.011 | [18] 0.128 | [19] -0.044 | [20] 0.076

TKT isoform 2 (UniProt P29401)
inactive: [1] -0.026 | [2] -0.022 | [3] 0.013 | [4] -0.004 | [5] -0.023 | [6] -0.006 | [7] 0.035 | [8] 0 | [9] -0.006 | [10] -0.003 | [11] 0.027 | [12] 0.014 | [13] 0.022 | [14] 0.002 | [15] -0.007 | [16] -0.032 | [17] 0.018 | [18] -0.009 | [19] -0.009 | [20] -0.009

TMCO1 (UniProt Q9UM00)
inactive: [1] 0.04 | [2] 0.073 | [3] -0.126 | [4] 0.059 | [5] -0.018 | [6] 0.022 | [7] -0.053 | [8] -0.092 | [9] 0.007 | [10] -0.023 | [11] 0.015 | [12] 0.081 | [13] 0.018 | [14] -0.056 | [15] -0.05 | [16] -0.026 | [17] -0.009 | [18] -0.047 | [19] -0.008 | [20] 0.007

TLK1 isoform 2 (UniProt Q9UKI8)
inactive: [1] 0 | [2] -0.029 | [3] -0.024 | [4] -0.013 | [5] -0.007 | [6] -0.016 | [7] 0.145 | [8] 0.007 | [9] 0.099 | [10] 0.023 | [11] 0.017 | [12] 0.094 | [13] 0.053 | [14] 0.01 | [15] 0.012 | [16] -0.002 | [17] 0.038 | [18] -0.013 | [19] -0.037 | [20] 0

TLE4 isoform 3 (UniProt Q04727)
inactive: [1] -0.075 | [2] 0.034 | [3] 0.018 | [4] 0.025 | [5] 0.003 | [6] 0.017 | [7] 0.036 | [8] -0.019 | [9] -0.004 | [10] -0.02 | [11] 0.006 | [12] 0.014 | [13] 0.021 | [14] -0.01 | [15] -0.051 | [16] 0.027 | [17] 0.031 | [18] -0.049 | [19] -0.003 | [20] 0

TLN2 (UniProt Q9Y4G6)
inactive: [1] -0.015 | [2] -0.038 | [3] 0.018 | [4] -0.01 | [5] -0.021 | [6] 0.007 | [7] 0.036 | [8] 0 | [9] 0.012 | [10] -0.004 | [11] -0.016 | [12] -0.018 | [13] 0.002 | [14] -0.009 | [15] 0.004 | [16] -0.049 | [17] -0.001 | [18] 0.008 | [19] -0.002 | [20] 0
